## Library screening results

The values are deposited in ChEMBL (CHEMBL3988442, “University of Dundee, Small-Polar-MMV Screening Library” (2021)).

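Viability assay of Plasmodium falciparum sporozoites; the read-out is not stated. The concentration is filed as 10 mM, unlikely as a test dose, so the dose is not known. Direction is inferred from retests: higher values go with lower viability. Strong results were mostly tested again. Of about 34,000 compounds tested this way, about 280 (0.84%) reached 50% or more in at least one test.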

Results are given as percent effect.
How 0% and 100% were set is not recorded. Most values in the screen are low, and negative values occur.
The compounds are a random part of those screened.
Two or more numbers in one place are separate tests of the same structure; such repeats can differ widely.

- CNS(=O)(=O)c1csc(C(=O)N(C)Cc2ccccc2C)c1 : -11.88%
- Cl.Cl.O=C(CN1CCN(CC(O)C2CC2)CC1)NCc1ccc(F)cc1 (stereo not shown) : -16.21% and -6.369% and -9.827%
- CCc1nnsc1-c1nc(C(C)C)nn1-c1ccc2c(c1)OCO2 : 11.73% and 0.5568%
- Cn1ccc(C(=O)NCc2ccc(N3CCOCC3)nc2)cc1=O : -2.366%
- COCC1CN(Cc2ccc(F)cc2)Cc2nn(C)cc21.O=C(O)C(F)(F)F (stereo not shown) : 5.113%
- COC(=O)N1CCN(Cc2csc(-c3ncccn3)n2)CC1 : 13.73% and 17.04% and -9.01%
- Cn1ccnc1CN1CCN(CC(O)c2ccc(F)c(F)c2)CC1 (stereo not shown) : 7.032%
- COc1cccc(OCC(=O)NS(=O)(=O)c2cccnc2)c1 : 7.117%
- O=C(NC1(c2cccc(F)c2)CCOCC1)c1ccccn1 : 7.415%
- Nc1cccc(-c2cccc3ccnn23)n1 : -33.9% and -33.84%
- O=C1CC(c2ccncc2)C2(CCN(C(=O)c3ccnnc3)CC2)N1 (stereo not shown) : 10.94%
- COC(=O)c1ccc(N2CCN(C(=O)c3cnc(C)cn3)C(C)C2)cc1 (stereo not shown) : 15.97%
- CCn1cc(CN2CCCC(c3[nH]ncc3S(C)(=O)=O)C2)cn1 (stereo not shown) : -19.32%
- CC(C)CC(=O)NS(=O)(=O)c1ccc(C#N)cc1C(F)(F)F : 11.59%
- CCc1c(C)sc2nc3n(CCN4CCCCC4)nc(SC)n3c(=O)c12 : 23.77% and 18.02%
- CN(CCC(=O)NC1CC1)Cc1ccc(Cl)s1 : -9.143%
- CCN(CC1CN(CCc2ccccn2)CCO1)c1cccnn1 (stereo not shown) : -4.506%
- C[C@@H]1CN(c2nc(N)nc3c2CCC3)CC[C@@]1(O)C1CCC1 : 0.8919%
- CCN1CCN(C2CCN(Cc3nnc(C(C)C)o3)CC2)C1=O : 2.891%
- O=C(CC1CC1)N1Cc2nccn2CC(CN2CCCC2)C1 (stereo not shown) : 9.933%
- c1cc(C2CCCN2CC2CC2)n[nH]1 (stereo not shown) : 13.8%
- Cc1cccc(S(=O)(=O)N2CCC3(CC2)CC(N(C)C)CO3)c1 (stereo not shown) : -3.663%
- CCc1ccc(C(=O)N2CCN(c3nc(C)cc(OC)n3)CC2)o1 : -7.019%
- O=C(CN1CCCC(CO)C1)NCCOc1cccc(Cl)c1 (stereo not shown) : 8.881%
- CN(C(=O)Cc1c[nH]c2ccccc12)C1CCN(c2ccccn2)CC1 : -396.8%
- CCN1C(=O)CCC12CCCN(CCc1ccccc1)C2 (stereo not shown) : 3.765%
- O=C(Nc1nccs1)NC1CCN(CC2CCCC2)CC1 : 7.261%
- [H][C@]12CC(COCc3cccnc3)C[C@]1([H])N(Cc1cccnc1)CCO2 (stereo partly shown) : 0.1733%
- CCC(=O)N1CCN(Cc2cc(-c3ccncc3)nn2C)CC1 : 4.147%
- CCOc1cc(CN(C)CCOC)ccc1OC(F)F : 9.597%
- Cc1cc(C(=O)N2CCN(Cc3ccsc3)CC2)n(C)n1 : 11.9%
- Cl.Cn1nc(C2CCN(C(=O)Cc3cccc(F)c3)CC2)c2cccnc21 : 0.8294%
- CCS(=O)(=O)N1CCC(Nc2c(F)cc(C#N)cc2F)CC1 : 5.257%
- [H][C@@]12COC[C@]1(COc1nccc(C)n1)CN(C(=O)c1cnccn1)C2 : 7.105%
- CCn1ccc(C(=O)N2CCOC(c3nc(-c4cccs4)no3)C2)n1 (stereo not shown) : -10.26% and 14.68% and 1.172%
- O=C(c1[nH]nc(C2CC2)c1Cl)N1CCN(C2CC2)C(=O)C1 : 67.53% and 69.62%
- [H][C@]12CC[C@]([H])(CN(Cc3cccnc3)C1)N(C(=O)CSc1ccncc1)C2 : -14.52%
- CC(C)NC(=O)N1CCN(S(=O)(=O)C2CC2)CC2(CC(=O)N(C)C2)C1 (stereo not shown) : -14.64%
- Cn1ccc(CN2CCC(CO)CC2)cc1=O : -8.115%
- Cc1ccc(S(=O)(=O)NC(=O)C2(c3ccccc3)CCC2)c(C)c1 : -0.6241% and 10.47%
- O=C(CC1CN(Cc2ccccc2)CCO1)NC1CCCC1 (stereo not shown) : -3.382% and -28.5% and -30.19%
- CCOCCn1c(=O)[nH]c2cc(C(=O)N(C)CCc3cn[nH]c3)ccc21 : 2.706%

The first 5 entries again:

CNS(=O)(=O)c1csc(C(=O)N(C)Cc2ccccc2C)c1 gave -11.88%.
Cl.Cl.O=C(CN1CCN(CC(O)C2CC2)CC1)NCc1ccc(F)cc1 (stereo not shown) gave -16.21% and -6.369% and -9.827%.
CCc1nnsc1-c1nc(C(C)C)nn1-c1ccc2c(c1)OCO2 gave 11.73% and 0.5568%.
Cn1ccc(C(=O)NCc2ccc(N3CCOCC3)nc2)cc1=O gave -2.366%.
COCC1CN(Cc2ccc(F)cc2)Cc2nn(C)cc21.O=C(O)C(F)(F)F (stereo not shown) gave 5.113%.